## Percent effect of library compounds

Source: ChEMBL document CHEMBL3988442, “University of Dundee, Small-Polar-MMV Screening Library” (2021).

A: 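Whole-cell growth test on Mycobacterium tuberculosis, read after 4 days in a medium based on cholesterol and the lipid DPPC; the read-out is not stated. Tested at 500 µM. The record gives no direction; compounds that gave an IC50 in retests scored well above the rest, so higher reads as more growth inhibition. Of about 18,000 compounds tested this way, about 900 (5%) reached 50% or more in at least one test.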
B: 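Growth of Mycobacterium tuberculosis over 3 days (7H9 medium with glucose and tyloxapol); the read-out is not stated. Compounds at 500 µM. The record gives no direction; compounds that gave an IC50 in retests scored well above the rest, so higher reads as more growth inhibition. Of about 18,000 compounds tested this way, about 1,400 (7.9%) reached 50% or more in at least one test.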

Results are given as percent effect.
The record does not define 0% and 100%; most values in the screen are far below 50% and negative numbers occur (in some assays of this library far below -100).
Compounds were drawn at random from those tested, without regard to their results.

| SMILES | A | B |
|---|---|---|
| `Cc1cc(NC(=O)NCCO)nn1-c1cccc(Cl)c1` | -27.35 | -12.34 |
| `CCc1cc(CN)[nH]n1` | 21.55 | 40.06 |
| `O=C(NCC1CCOCC1)NC1CCCC1` | -4.565 | 6.378 |
| `O=C(Cc1ccccc1)NCc1ccncc1` | 1.501 | 11.87 |
| `Cn1cc(S(=O)(=O)NC(CO)c2ccccc2F)cn1` (stereo not shown) | -2.992 | 8.452 |
| `CCC=C(C)C(=O)N1CCN(C(=O)c2cccs2)CC1` | 15.93 | 37.72 |
| `O=C(NC1CCS(=O)(=O)C1)c1ccc(C(F)(F)F)nc1` (stereo not shown) | 2.695 | 3.276 |
| `COc1ncc(C)cc1NC(=O)c1cc[nH]n1` | -11.93 | -12.83 |
| `Cc1ccc(Cl)cc1NC(=O)c1ccc(=O)n(C)n1` | -14.33 | -18.33 |
| `CCCN(CCC(=O)NC(=O)NC)CC1CCCCO1` (stereo not shown) | 101 | 101.8 |
| `COc1ccc(C2=NN=C(NC3CC3)SC2)cc1OC` | 6.802 | 25.49 |
| `Cc1cccc(C)c1CS(N)(=O)=O` | -15.61 | 8.061 |
| `CCNC(=O)c1cc(O)nc2c(C)cccc12` | -32.72 | -19.53 |
| `COc1cc(OC)c(NC(=O)N(C)C)cc1Cl` | 11.31 | 15.01 |
| `Cc1ncsc1C(=O)NCCCN1CCOCC1` | -7.668 | -1.691 |
| `O=C(C1CCS(=O)(=O)C1)N1CCc2ccccc2C1` (stereo not shown) | -2.405 | 5.799 |
| `CCNS(=O)(=O)C1CCN(Cc2c(F)cccc2F)C1` (stereo not shown) | 14.88 | 33.46 |
| `Cn1ccsc1=NC(=O)c1cnc(C2OCCO2)s1` | 4.959 | 20.63 |
| `COCC(C)(C#N)NC(=O)c1ccc(C)cc1F` (stereo not shown) | -10.49 | -8.881 |
| `N#Cc1cccc(C#N)c1` | -1.577 | -4.093 |
| `O=C1CC(O)CCN1` (stereo not shown) | -7.4 | 4.991 |
| `CC(C(=O)Nc1ccccn1)n1cccn1` (stereo not shown) | -8.339 | 3.544 |
| `CC(C)CN1CCOC(CNC(=O)c2cnccn2)C1` (stereo not shown) | 20.23 | 25.38 |
| `CCC(NC(=O)c1cnc(O)cn1)c1ncnn1C` (stereo not shown) | -11.23 | -8.85 |
| `Cc1ccc2oc(CNC(C)(CO)CO)cc2c1` | 6.262 | 4.198 |
| `CN1CCC(N2CCN(Cc3cncn3C)CC2)CC1` | 7.213 | 1.987 |
| `Cc1ccc2oc(CN)cc2c1` | -3.703 | -6.921 |
| `O=C(Cn1ccc(=O)[nH]c1=O)NCc1cccc(Cl)c1` | 11.16 | 23.26 |
| `C=Cc1ccc(NC(=O)N(C)C2CCN(C)C2)cc1` (stereo not shown) | 13.41 | 14.19 |
| `CCCc1cc(C(=O)N2CCCN(C)CC2)cs1` | 37.91 | 57.51 |
| `CCN(CC)c1ccc(N)cn1` | -189.7 | -166.2 |
| `CNC1CCNC1=O` (stereo not shown) | -9.389 | -7.122 |
| `COCCc1nc(CC(C)N(C)C)n(CCO)n1` (stereo not shown) | -1.663 | 1.711 |
| `NS(=O)(=O)C1CCCOC1` (stereo not shown) | -2.068 | -8.893 |
| `N#Cc1ccccc1CN1CCCC1CO` (stereo not shown) | 78.05 | 67.98 |
| `Cn1nc(CCN)c2ccccc21` | 70.99 | -8.416 |
| `N#CCc1ccc2ccccc2n1` | -47.85 | -60.48 |
| `NC(=O)CCSc1nnc(N2CCCC2)n1C1CC1` | 9.953 | -10.55 |
| `CNCc1nc(C)cs1` | -9.484 | -1.791 |
| `COC(=O)c1cc(CN2CCCSCC2)oc1C` | -5.567 | -1.471 |

3 of the entries, repeated:

{"smiles": "COc1ccc(C2=NN=C(NC3CC3)SC2)cc1OC", "A": 6.802, "B": 25.49}
{"smiles": "Cc1cc(NC(=O)NCCO)nn1-c1cccc(Cl)c1", "A": -27.35, "B": -12.34}
{"smiles": "CC(C)CN1CCOC(CNC(=O)c2cnccn2)C1", "stereo": "stereo not shown", "A": 20.23, "B": 25.38}